Reference: PubChem BioAssay AID1508600 (Functional Genomics Laboratory (NCATS/FGL), 2020)
About 3,700 (7%) of roughly 53,000 sequences were called active.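 How the source made its calls: active means gene knockdowns whose robust z-score for IL-1 alpha signal is at least 2 or at most -2, so actives lie on both sides; inactive means the rest.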 The list shows a part of the results.

Experiment: Components of the Cytosolic LPS Sensing Pathway: Gene Identification via Genome-wide siRNA Screen;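 further: robust z of the log signal after scaling to non-targeting control siRNA wells of the plate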
Conditions: RAW264.7 macrophages, IL-1a HTRF, actives lie on both sides, screened at 100 nM (by protocol), cells primed 5 h with Pam3CSK4 first
Summary of the method: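 Read-out: IL-1a HTRF on supernatant, divided by plate negative-control median ×100, log-transformed and converted to robust z-score. Cells were RAW264.7 given 100 nM siRNA, Pam3CSK4-primed 5 hours, then LipidA-transfected 24 hour.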

Row | Sequence | z-score
1 | GGAGACAAGAACUACAUUATT against Actn3 | inactive: 0.747
2 | GCUUACUGUCCCUUAAGUUTT against Msantd1 | active: 2.45
3 | GGCCAUCAGAUAGUUUAAUTT against AW551984 | inactive: 0.458
4 | GGGUAGUAGCCUUCUUAUCTT against Olfr1168 | inactive: -0.414
5 | GGCAAUAAUAAAGUCCAUCTT against Letm2 | inactive: -0.26
6 | CGUGAUGUGGUAUUGGAACTT against Ampd2 | inactive: 0.0258
7 | GAACUUCUUCUGGAAAACCTT against Cort | inactive: -0.149
8 | GGCUAAGGAAAUUUUAACGTT against Ppp2cb | inactive: -1.18
9 | CCUUCAAAGUAACUCUUAGTT against Zfp697 | inactive: 1.22
10 | GGCGUGCUCUGACACAAAATT against Rnf227 | inactive: 0.39
11 | CCAUGAAAAGUGUGAAUGCTT against Fap | inactive: -0.276
12 | CCUGUCAGUUAACAUUUGATT against Acadsb | inactive: -0.759
13 | GCUAUAGGAACCUUCAGAGTT against Hbegf | inactive: 0.918
14 | GGGCUGUGAGCUCUGUUCATT against Rspo1 | inactive: 0.188
15 | GGGUUUUAUCAGCUAAAAATT against Plppr4 | active: 2.29
16 | GGGAAGAGUCUUGUUUAAATT against Nectin3 | inactive: -0.273
17 | GGGAACAAAUGUUUCAUUGTT against Mfap3 | inactive: 1.14
18 | GGGACCUGUUUCUAUCCUGTT against Tmem270 | inactive: 1.2
19 | GGAAGACAAUGAUGAUGUUTT against Clns1a | inactive: -1.82
20 | GGAAAUUAAAGACCAGUAGTT against 2810025M15Rik | inactive: -0.697
21 | CGACGAAGAUAUUUACAGUTT against Vav1 | inactive: 0.504
22 | GCCAGUUCAUACAAGAGGGTT against Zfp946 | inactive: 0.623

Row | Sequence | z-score
23 | GGGCCACCCAAAAUAACUCTT against Tesmin | inactive: 0.283
24 | GGCUUACCUACAACAAGUUTT against Ccnt1 | active: -2.07
25 | GGGUGAAAAUUCUUACUUGTT against Toe1 | inactive: -0.844
26 | GCCAGAACCCGUCUUUUCATT against Ccpg1 | inactive: 0.141
27 | GGAAAGGCAAAUACCAAGCTT against Ddx25 | inactive: -1.78
28 | GCAAUGUGGGUUAUUAUUUTT against Olfr963 | inactive: -1.13
29 | GCACCUUCAACCAACAAGGTT against Dph3 | inactive: -0.311
30 | GGACCAGUUUGAGUAUGAGTT against Tmem11 | inactive: -1.58
31 | GGAGAAUUCCAAUUUUAGGTT against Pcdhb14 | inactive: 0.121
32 | GGCAUCUUCAUGUACUUGCTT against Olfr1445 | inactive: 1.5
33 | GGAGUUUACGGCUAUUGACTT against Adap2 | inactive: -0.884
34 | CCAGGAUUCCGACUGAAUCTT against Oscp1 | inactive: -0.367
35 | GCUGGUAGGAAGUCCAAAATT against Knop1 | inactive: 0.115
36 | GGCUGGUUACCUGCAUAAGTT against Sh3bp2 | inactive: 0.225
37 | GGUUUUAUUUGGGAUUAGCTT against Arfgap2 | inactive: 0.327
38 | CCGUGUAAACCUGGCAUCATT against Znhit1 | inactive: -0.641
39 | CCAUUGUCAAGUCAAGAGCTT against 4933440M02Rik | inactive: -1.63
40 | GGUGAAAGUGAGAAGGAAGTT against Pimreg | inactive: 0.0325
41 | GGACAAUUUACACGACCAGTT against Folr1 | inactive: -1.66
42 | GGAUUAUGAUUUGCCUGAUTT against 4932414N04Rik | inactive: 1.05
43 | GGUCGCCUAUUUCAAGAUATT against P3h1 | inactive: -0.238
44 | GCAAAUUAGGCUCUUAUCCTT against 4930402H24Rik | inactive: -0.333

Row | Sequence | z-score
45 | GGGAGAGGGAACAUUCAAGTT against C1ql2 | inactive: 0.823
46 | GUGAAGUCUUCAGCAGUCUTT against Sprr2f | inactive: 0.31
47 | GGAAGCAGUACCUUCAUCGTT against Mul1 | inactive: 1.66
48 | CCUAACACUAGUCUCAGAATT against Olfr873 | inactive: 0.192
49 | GGUGCAGAGGAUCUACUAATT against Marchf5 | inactive: 1.87
50 | GGAACUUUGUCAUCAGUGGTT against Zkscan1 | inactive: -1.83
51 | GGCACUAAUUUCACUCUUCTT against Tenm4 | inactive: 0.223
52 | GCAUAGGCCUUAGUUCUGCTT against Jpt2 | inactive: -0.666
53 | GCCACUUUCUGGUUUUGUATT against Tas2r126 | inactive: -0.171
54 | GGGUUAAUUCCAGAAACUATT against Synb | inactive: -0.0547
55 | CGGAUACCGUAGUUUGGUGTT against Lipe | inactive: 1.51
56 | GCCCAGCCUACUAACAACCTT against Plxnb1 | inactive: 0.568
57 | GGAUAUGGAGAGAGAUUUATT against 1700102P08Rik | inactive: 0.0896
58 | CCAGUGUUGUUCUGUAAAUTT against Cep41 | inactive: 0.958
59 | GCGGAGGUCACGUUUACAUTT against Crebbp | inactive: -1.34
60 | GGCAGUGAAUCUCAAAUCCTT against Jam3 | inactive: -0.424
61 | GGCCUGCCUUUUUAUCUUGTT against Rrs1 | inactive: 1.9
62 | GGCGAUUCUGGCUCUCUUUTT against Commd9 | inactive: 1.28
63 | CCUUGCCAUAAGUGAUUUATT against Npffr2 | inactive: 0.876
64 | GGGAAAUCUCUGUUGGACATT against Akr1c13 | inactive: -1.17
65 | GGAAGUUCUAGAAAGGUUGTT against Tapbp | inactive: 0.575
66 | GAGAGUAAAGAGCCGUUCUTT against Ly6i | inactive: 0.105

Row | Sequence | z-score
67 | GCUCUGGUGAAUCCAUUGATT against Mid2 | inactive: 0.122
68 | GGCAAACCUUCUCUAAUUUTT against Nif3l1 | inactive: -0.251
69 | GGUUCAAAACUACACACACTT against Sp9 | inactive: 0.512
70 | CGAGGAAUAGAUUUUUUGATT against Twistnb | inactive: -0.538
71 | GGCAACUGGAGAUGUGUGUTT against Lpgat1 | inactive: -0.361
72 | GGAACAAGAAGAAGAAAAATT against Slco3a1 | inactive: -1.03
73 | CGAUUUAUCUCAGACUUCATT against Lax1 | inactive: 1.73
74 | CGAUAAGGAAGAGCGGAUCTT against Epn1 | inactive: -0.127
75 | GGCAAUCAGGUUGACAGAUTT against Aadacl2fm1 | inactive: 0.694
76 | GGAGUAAAUAAGGACAUUGTT against Pcdha3 | inactive: 0.836
77 | GCCACUGGUUCACCAUGCATT against Ugt1a9 | inactive: -0.52
78 | GGUACCUGUUAAAUGUUACTT against Arl14ep | inactive: -0.171
79 | GGUCGAGUUCACGGACUCUTT against Pitx2 | inactive: -1.32
80 | CCGGCAUUACCGAUCGUAATT against Epcam | inactive: -1.13
81 | GGCUACUGUUGCUGCAUUUTT against Lin7c | active: -2.49
82 | GCGCGAGCAUUACAUAACUTT against Ccdc151 | inactive: 0.333
83 | GGUCCCUUUUGCUAAAACATT against Ppp1r26 | inactive: 0.418
84 | GGCAUGAACACUGAGGAGUTT against B4galnt4 | inactive: 1.11
85 | GGCUCAAGCGAAAAGCAGATT against Serping1 | inactive: -0.46
86 | GGUCCUCAACUACAUUUUUTT against Prl5a1 | inactive: 0.0222
87 | GGAUGAAGAGGAUUCAUUGTT against Pde4a | inactive: 1.1
88 | GGGAAUCAUGAUAUGUUUCTT against Tmem186 | inactive: -0.217

Rewritten tab-delimited: part of the list above
Row	Sequence	z-score
20	GGAAAUUAAAGACCAGUAGTT against 2810025M15Rik	inactive: -0.697
40	GGUGAAAGUGAGAAGGAAGTT against Pimreg	inactive: 0.0325
42	GGAUUAUGAUUUGCCUGAUTT against 4932414N04Rik	inactive: 1.05
73	CGAUUUAUCUCAGACUUCATT against Lax1	inactive: 1.73

(list continues)

Row | Sequence | z-score
89 | GAAAUGGAACGGUGCCACATT against Defb9 | inactive: 0.669
90 | CCCAAUUAGGCUAUGCUAATT against Amfr | active: 2.27
91 | GCAAAUUGUCAACAUACUUTT against Slc3a2 | inactive: 1.48
92 | GGCGACAAGCAACUUAUAATT against Mgat4c | active: 3.25
93 | GGCAAAAGGCACUUUUGGATT against Cep295nl | inactive: -1.13
94 | GCCCUUAUUUACUAACAUCTT against 1500015L24Rik | inactive: -1.26
95 | CCAAGGCCAUCUCAUUUUCTT against Olfr749 | inactive: 0.511
96 | GGCAUAUAGAAACUGGUAATT against Npy6r | inactive: -0.316
97 | GGAUUUGCCUUAAAAAAUCTT against Dock4 | inactive: -0.0352
98 | GGUUCAGCUAAAGGAUUUATT against Sbno1 | inactive: 0.221
99 | CGUCAAUAAUCUAUAUAGCTT against Blm | inactive: 0.43
100 | GGUGAUAAAAGAUUAGAAGTT against Nckipsd | inactive: -0.128
101 | GGUUUAUGAGGAAAAGAAGTT against Svs6 | inactive: -1.56
102 | GGCACCUUAAUGCUGACUUTT against Sdc4 | inactive: -0.694
103 | GCUUAUAAAAGACUUACUGTT against Sec24b | inactive: 0.414
104 | GGCACAGAACAUUUAAUUGTT against Mefv | inactive: 0.167
105 | GGAAAACAGAAAUGGUUUATT against Slc39a10 | inactive: -0.0433
106 | GGCCGACCUUUCUAUCAAUTT against Rasip1 | inactive: -0.0174
